From PMC11499603
Results are given in words; binding and its absence hold for the method and conditions named. Binding seen in cells or lysates may run through a third protein. These calls come from enrichment with a bait or labelling near it, and not all partners need be listed.

Biological target: α-tubulin (human (endogenous in H520))
Experiment: affinity purification with mass spectrometry; α-tubulin immunoprecipitated from H520^VASH2, H520^VASH2-mut and H520^NC cells, LC-MS/MS of the precipitate

binding | Binder
binds | KIF4A (protein, UniProt O95239 1-1232) MKEEVKGIPVRVALRCRPLVPKEISEGCQMCLSFVPGEPQVVVGTDKSFTYDFVFDPSTEQEEVFNTAVAPLIKGVFKGYNATVLAYGQTGSGKTYSMGGAYTAEQENEPTVGVIPRVIQLLFKEIDKKSDFEFTLKVSYLEIYNEEILDLLCPSREKAQINIREDPKEGIKIVGLTEKTVLVALDTVSCLEQGNNSRTVASTAMNSQSSRSHAIFTISLEQRKKSDKNSSFRSKLHLVDLAGSERQKKTKAEGDRLKEGININRGLLCLGNVISALGDDKKGGFVPYRDSKLTRLLQDSLGGNSHTLMIACVSPADSNLEETLNTLRYADRARKIKNKPIVNIDPQTAELNHLKQQVQQLQVLLLQAHGGTLPGSITVEPSENLQSLMEKNQSLVEENEKLSRGLSEAAGQTAQMLERIILTEQANEKMNAKLEELRQHAACKLDLQKLVETLEDQELKENVEIICNLQQLITQLSDETVACMAAAIDTAVEQEAQVETSPETSRSSDAFTTQHALRQAQMSKELVELNKALALKEALARKMTQNDSQLQPIQYQYQDNIKELELEVINLQKEKEELVLELQTAKKDANQAKLSERRRKRLQELEGQIADLKKKLNEQSKLLKLKESTERTVSKLNQEIRMMKNQRVQLMRQMKEDAEKFRQWKQKKDKEVIQLKERDRKRQYELLKLERNFQKQSNVLRRKTEEAAAANKRLKDALQKQREVADKRKETQSRGMEGTAARVKNWLGNEIEVMVSTEEAKRHLNDLLEDRKILAQDVAQLKEKKESGENPPPKLRRRTFSLTEVRGQVSESEDSITKQIESLETEMEFRSAQIADLQQKLLDAESEDRPKQRWENIATILEAKCALKYLIGELVSSKIQVSKLESSLKQSKTSCADMQKMLFEERNHFAEIETELQAELVRMEQQHQEKVLYLLSQLQQSQMAEKQLEESVSEKEQQLLSTLKCQDEELEKMREVCEQNQQLLRENEIIKQKLTLLQVASRQKHLPKDTLLSPDSSFEYVPPKPKPSRVKEKFLEQSMDIEDLKYCSEHSVNEHEDGDGDDDEGDDEEWKPTKLVKVSRKNIQGCSCKGWCGNKQCGCRKQKSDCGVDCCCDPTKCRNRQQGKDSLGTVERTQDSEGSFKLEDPTEVTPGLSFFNPVCATPNSKILKEMCDVEQVLSKKTPPAPSPFDLPELKHVATEYQENKAPGKKKKRALASNTSFFSGCSPIEEEAH
binds | kinesin family member 3C (protein, UniProt O14782 1-793) MASKTKASEALKVVARCRPLSRKEEAAGHEQILTMDVKLGQVTLRNPRAAPGELPKTFTFDAVYDASSKQADLYDETVRPLIDSVLQGFNGTVFAYGQTGTGKTYTMQGTWVEPELRGVIPNAFEHIFTHISRSQNQQYLVRASYLEIYQEEIRDLLSKEPGKRLELKENPETGVYIKDLSSFVTKNVKEIEHVMNLGNQTRAVGSTHMNEVSSRSHAIFIITVECSERGSDGQDHIRVGKLNLVDLAGSERQNKAGPNTAGGAATPSSGGGGGGGGSGGGAGGERPKEASKINLSLSALGNVIAALAGNRSTHIPYRDSKLTRLLQDSLGGNAKTIMVATLGPASHSYDESLSTLRFANRAKNIKNKPRVNEDPKDTLLREFQEEIARLKAQLEKRGMLGKRPRRKSSRRKKAVSAPPGYPEGPVIEAWVAEEEDDNNNNHRPPQPILESALEKNMENYLQEQKERLEEEKAAIQDDRSLVSEEKQKLLEEKEKMLEDLRREQQATELLAAKYKAMESKLLIGGRNIMDHTNEQQKMLELKRQEIAEQKRREREMQQEMMLRDEETMELRGTYTSLQQEVEVKTKKLKKLYAKLQAVKAEIQDQHDEYIRVRQDLEEAQNEQTRELKLKYLIIENFIPPEEKNKIMNRLFLDCEEEQWKFQPLVPAGVSSSQMKKRPTSAVGYKRPISQYARVAMAMGSHPRYRAENIMFLELDVSPPAVFEMEFSHDQEQDPRALHMERLMRLDSFLERPSTSKVRKSRSWCQSPQRPPPSTTHASLASASLRPATVADHE
